At least one compound was matched to its structure with a doubt left. Some entries share one result that the patent states for a list of compounds.
Key:
HFD-fed obese mice [1] = assay: Insulin Tolerance Test (ITT); assay type: in vivo; settings: day 16 of celastrol 100 μg/kg i.p.; insulin 1 IU/kg
HFD-fed obese mice [2] = assay: Liver and kidney histology (H&E); assay type: in vivo; settings: liver H&E; three weeks 100 μg/kg i.p.
HFD-fed obese mice [3] = assay: Glucose Tolerance Test (GTT); assay type: in vivo; settings: one week of celastrol 100 μg/kg i.p.; D-glucose 0.75 g/kg i.p.; versus vehicle
obese mice = assay: Chronic co-administration of celastrol and leptin to obese mice; assay type: in vivo, C57B1/6J mice; settings: celastrol 100 μg/kg/day i.p.; plateau at approximately day 17
HFD-fed obese mice [4] = assay: Oral celastrol to HFD-fed obese mice; assay type: in vivo
[5] = test system: leptin receptor deficient (db/db) mice; assay: Celastrol i.p. to leptin receptor deficient (db/db) mice; assay type: in vivo
HFD-fed mice = assay: Administration of celastrol to prevent obesity; assay type: in vivo, C57BL/6 mice; settings: HFD from weaning; 100 μg/kg/day i.p. for over 6 months
db/db mice = assay: Oral celastrol to db/db mice; assay type: in vivo; settings: orally 10 mg/kg
lean mice [6] = assay: Oral celastrol to lean mice; assay type: in vivo; settings: orally 10 mg/kg
HFD-fed obese mice [7] = assay: Celastrol i.p. once a day to HFD-fed obese mice: body weight, food intake, fasting blood glucose; assay type: in vivo, C57B1/6J mice
[8] = test system: Glucose 6-phosphatase (G6Pase); assay: Hepatic mRNA expression by quantitative PCR; assay type: in vivo, mice; settings: 3-week i.p. 100 μg/kg
lean mice [9] = assay: Celastrol i.p. to lean mice on chow diet; assay type: in vivo
[10] = test system: Peroxisome proliferator-activated receptor gamma coactivator 1-alpha (PGC1a); assay: Hepatic mRNA expression by quantitative PCR; assay type: in vivo, mice; settings: 3-week i.p. 100 μg/kg
[11] = test system: Phosphoenolpyruvate carboxykinase (PEPCK); assay: Hepatic mRNA expression by quantitative PCR; assay type: in vivo, mice; settings: 3-week i.p. 100 μg/kg
leptin = assay: Plasma leptin level by leptin specific ELISA during chronic celastrol; assay type: in vivo, mice; settings: chronic celastrol 100 μg/kg i.p.
HFD-fed obese mice [12] = assay: Leptin injection upon acute celastrol treatment, HFD-fed obese mice; assay type: in vivo; settings: 24 hour ad libitum feeding period after 24-hour fasting
Description: It was therefore hypothesized that celastrol exerts anti-obesity effects through increasing leptin sensitivity in the brains of the HFD-fed obese mice. To test this hypothesis, leptin was administered to celastrol- or vehicle-treated HFD-fed obese animals. To avoid any possible leptin sensitizing effect of weight loss or decreased food intake created by celastrol administration, leptin injections were carried out upon acute celastrol treatment as described below.
Lean and HFD-fed obese mice were divided into four groups: 1) DMSO+saline, 2) DMSO+leptin, 3) celastrol+saline, and 4) celastrol+leptin (n=3 per group). Mice were injected (ip) with 100 μg/kg celastrol or vehicle (DMSO) one hour before dark cycle (day zero). 24 hours later, mice were injected for a second time with celastrol or DMSO (day 1), and all animals were then taken to 24 hour-fasting. On day two, at 21 hours of fasting, mice received a final injection of DMSO or celastrol. 30 minutes prior to dark cycle, at 23.5 hour of fasting, mice received a single ip injection of leptin (10 mg/kg, dissolved in saline), or saline. […] 1, 3, 6, 15, and 24-hour food intake and 24-hour body weight changes were recorded (FIG. 7A). […] This is clearly evident when food intake of the celastrol-treated mice is calculated in percent values (FIG. 7B). […]

HFD-fed obese mice [13] = assay: Body composition by Dual-Emission X-ray Absorptiometry (DEXA); assay type: in vivo; settings: ip 100 μg/kg, two weeks
[14] = test system: leptin deficient (ob/ob) mice; assay: Celastrol i.p. to leptin deficient (ob/ob) mice; assay type: in vivo
ob/ob mice = assay: Oral celastrol to ob/ob mice; assay type: in vivo; settings: orally 10 mg/kg
HFD-fed obese mice [15] = assay: Celastrol derivatives i.p. to HFD-fed obese mice; assay type: in vivo; settings: 100 μg/kg/day for 25 days, similar potency to celastrol
[16] = orally 10 mg/kg in a captisol suspension
[17] = i.p. 50, 100 or 500 μg/kg, three weeks

Structure (SMILES): CC1=C(O)C(=O)C=C2C1=CC=C1[C@@]2(C)CC[C@@]2(C)[C@@H]3C[C@](C)(C(=O)O)CC[C@]3(C)CC[C@]12C [celastrol]
- insulin sensitivity (ITT) (HFD-fed obese mice [1]): improved
- appearance of liver sections (HFD-fed obese mice [2]): virtually identical to the livers of lean mice
- hepatosteatosis (HFD-fed obese mice [2]): reduced
- glucose homeostasis (AUC of GTT) (HFD-fed obese mice [3]): significantly improved
- body weight (obese mice): decreased gradually and reached a plateau
- body weight (HFD-fed obese mice [4]; [16]): robust and significant decrease
- food intake (HFD-fed obese mice [4]; [16]): robust and significant decrease
- 6-hour fasting blood glucose levels (HFD-fed obese mice [4]; orally 10 mg/kg, reduced to hypoglycemic levels): decreased
- appetite ([5]; 100 μg/kg once a day): Neither of these mouse models showed a significant decrease
- body weight ([5]; 100 μg/kg once a day): continued to increase similar to the control
- 6-hour fasted blood glucose ([5]; 100 μg/kg, after 2 weeks): failed to decrease
- development of obesity (HFD-fed mice): did not
- response to oral celastrol treatment (body weight, food intake) (db/db mice): completely unresponsive
- body weight (lean mice [6]): no significant change
- food intake (lean mice [6]): no significant change
- blood glucose levels (lean mice [6]; after three weeks of treatment): small but significant decrease
- food intake towards the end of the study (HFD-fed obese mice [7]; HFD-fed obese mice, chronic celastrol, as endogenous leptin levels decrease): gradually rose
- 6-hour fasting blood glucose (HFD-fed obese mice [7]; day 14, i.p. 10, 50 and 100 μg/kg): decreased
- body weight (HFD-fed obese mice [7]; i.p. 10, 50 and 100 μg/kg once per day, three weeks, dose dependent): significantly decreased
- food intake (HFD-fed obese mice [7]; i.p. 10, 50 and 100 μg/kg, three days average within the first week, dose dependent): significantly decreased
- hepatic mRNA expression of G6Pase [8]: decreased
- blood glucose (lean mice [9]; 500 μg/kg i.p. (only the highest dose), 2 weeks of injections): significant decrease
- body weight (lean mice [9]; [17]): did not induce bodyweight loss
- food intake (lean mice [9]; [17]): significant but small decrease
- hepatic mRNA expression of PGC1a [10]: decreased
- hepatic mRNA expression of PEPCK [11]: decreased
- leptin levels (leptin): decrease gradually
- 24-hour body weight change (HFD-fed obese mice [12]): continued to exhibit weight loss
- fat mass (HFD-fed obese mice [13]): decreased significantly
- fat percentage (HFD-fed obese mice [13]): decreased significantly
- lean mass (HFD-fed obese mice [13]): remained unchanged
- appetite ([14]; 100 μg/kg once a day): Neither of these mouse models showed a significant decrease
- body weight ([14]; 100 μg/kg once a day): continued to increase similar to the control
- 6-hour fasted blood glucose ([14]; 100 μg/kg, after 2 weeks): failed to decrease
- response to oral celastrol treatment (body weight, food intake) (ob/ob mice): completely unresponsive

Structure (SMILES): Cc1c(O)c(O)cc2c1C(SCCC(=O)O)C=C1[C@@]2(C)CC[C@@]2(C)[C@@H]3C[C@](C)(C(=O)O)CC[C@]3(C)CC[C@]12C (stereo partly drawn) [mCS3]
- body weight (HFD-fed obese mice [15]): decreased
- food intake (HFD-fed obese mice [15]): decreased

Structure (SMILES): Cc1c(O)c(O)cc2c1C(SCCO)C=C1C2(C)CCC2(C)C3CC(C)(C(=O)O)CCC3(C)CCC12C (stereo not drawn) [mCS1]
- body weight (HFD-fed obese mice [15]): decreased
- food intake (HFD-fed obese mice [15]): decreased
